PubChem BioAssay AID1224830 | NIAID | 2016

Purpose: 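Genes whose knock-down alters the TNF-alpha reporter response to LPS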 (primary screen)
System: human THP-1 monocytic leukaemia cells, TNF dual-luciferase reporter clone, PMA-differentiated to macrophage-like cells
Reagents: siRNA pool against human genes, 50 nM
Timing: LPS for 4 h, given about 3 days after siRNA transfection
Challenge: bacterial LPS (TLR4 ligand), 10 ng/ml
Measured: 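TNF firefly reporter luminescence divided by renilla, normalised to the plate median, then turned into a robust z-score for each replicate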
Direction: TNF reporter robust z-score: higher = stronger TNF reporter response to LPS
Active means: 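a well is active when its z-score exceeds 2.8 or falls below -1.5; control wells carry no call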
The whole screen tested about 18,000 reagents; below is a random part of them. About 2,900 of them (16%) count as active. 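Calls are made per well; low scores hint the gene aids the LPS response, high scores that it dampens it.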 Repeated entries: four replicate wells of each siRNA pool.

Against CAVIN3, the values are TNF reporter robust z-score 0.79; inactive. After knock-down of CAVIN3, the record shows TNF reporter robust z-score 1.55; inactive. Against CAVIN3, the values are TNF reporter robust z-score 0.27; inactive. With knock-down of CAVIN3 the results were TNF reporter robust z-score 1.22; inactive. CYP3A43 scored TNF reporter robust z-score 2.44; inactive. CYP3A43 scored TNF reporter robust z-score 3.04; active.

CYP3A43 scored TNF reporter robust z-score 0.77; inactive. Depletion of CYP3A43 resulted in: TNF reporter robust z-score -0.06; inactive. RBSN scored TNF reporter robust z-score 0.78; inactive. Knock-down of RBSN resulted in: TNF reporter robust z-score 0.9; inactive. With knock-down of RBSN, the record shows TNF reporter robust z-score 0.57; inactive. RBSN scored TNF reporter robust z-score 1.66; inactive.

Depletion of KLHL8 came out at: TNF reporter robust z-score -0.67; inactive. Depletion of KLHL8 resulted in: TNF reporter robust z-score -0.17; inactive. Depletion of KLHL8 came out at: TNF reporter robust z-score -1; inactive. KLHL8 showed TNF reporter robust z-score -1.32; inactive. For RUBCNL, the entry reads TNF reporter robust z-score 1.88; inactive. RUBCNL showed TNF reporter robust z-score 0.77; inactive.

After knock-down of RUBCNL, the record shows TNF reporter robust z-score 1.74; inactive. With knock-down of RUBCNL the results were TNF reporter robust z-score 0.78; inactive. Against PRR16, the entry reads TNF reporter robust z-score -0.96; inactive. For PRR16, the entry reads TNF reporter robust z-score -0.13; inactive. Against PRR16 the deposit lists TNF reporter robust z-score 0.06; inactive. PRR16 showed TNF reporter robust z-score 0.05; inactive.

Silencing of JPH4 came out at: TNF reporter robust z-score 0.85; inactive. Knock-down of JPH4 came out at: TNF reporter robust z-score -1.01; inactive. Depletion of JPH4 resulted in: TNF reporter robust z-score -0.85; inactive. With knock-down of JPH4 the results were TNF reporter robust z-score -0.42; inactive. After knock-down of PDCL2, the screen gave TNF reporter robust z-score -1.32; inactive. Silencing of PDCL2 gave: TNF reporter robust z-score -0.13; inactive.

Depletion of PDCL2 gave: TNF reporter robust z-score 0.22; inactive. PDCL2 showed TNF reporter robust z-score -0.37; inactive.

Next entries:
With knock-down of PROSER3, the record shows TNF reporter robust z-score -1.47; inactive. Against PROSER3, the entry reads TNF reporter robust z-score -1.01; inactive. For PROSER3 the deposit lists TNF reporter robust z-score -1.23; inactive. With knock-down of PROSER3, the record shows TNF reporter robust z-score -0.71; inactive. After knock-down of ZNF250, the screen gave TNF reporter robust z-score -0.03; inactive. For ZNF250, the values are TNF reporter robust z-score 0.21; inactive.

ZNF250 gave TNF reporter robust z-score 0.33; inactive. Depletion of ZNF250 came out at: TNF reporter robust z-score 0.39; inactive. COL11A2 gave TNF reporter robust z-score 1.52; inactive. COL11A2 showed TNF reporter robust z-score 1.05; inactive. Knock-down of COL11A2 came out at: TNF reporter robust z-score -0.77; inactive. For COL11A2, the values are TNF reporter robust z-score 1.04; inactive.

DOLPP1 scored TNF reporter robust z-score -0.95; inactive. For DOLPP1, the entry reads TNF reporter robust z-score -1.04; inactive. Silencing of DOLPP1 resulted in: TNF reporter robust z-score -0.79; inactive. Silencing of DOLPP1 resulted in: TNF reporter robust z-score -1.26; inactive. SAP130 scored TNF reporter robust z-score 1.16; inactive. Depletion of SAP130 gave: TNF reporter robust z-score -0.17; inactive.

After knock-down of SAP130, the screen gave TNF reporter robust z-score -0.24; inactive. Silencing of SAP130 gave: TNF reporter robust z-score -0.7; inactive. With knock-down of LNPEP the results were TNF reporter robust z-score 1.21; inactive. After knock-down of LNPEP, the screen gave TNF reporter robust z-score 0.69; inactive. Against LNPEP the deposit lists TNF reporter robust z-score 1.61; inactive. Depletion of LNPEP resulted in: TNF reporter robust z-score -0.46; inactive.

CHLSN gave TNF reporter robust z-score 1.56; inactive. After knock-down of CHLSN, the record shows TNF reporter robust z-score 0.95; inactive. After knock-down of CHLSN, the screen gave TNF reporter robust z-score 1.59; inactive. With knock-down of CHLSN the results were TNF reporter robust z-score 0.7; inactive.
